Measured values taken from article PMC8495450.
These are yes or no findings as the source states them, for the method shown. For some assays here: In cells and extracts the contact can be indirect. Some results given as binding are weak or reduced against the parent protein; the word gives no strength. Tags and fused reporters may be left off the sequences shown.

Protein sequences, listed by entry. Tags and fused reporters are not part of them. Lines headed by an entry give the natural chain unless they say otherwise; changes in a name come on top. Chains listed by the source or under a name are the forms on record and can include a tag or linker. Residues count along the entry.
UniProt O75489: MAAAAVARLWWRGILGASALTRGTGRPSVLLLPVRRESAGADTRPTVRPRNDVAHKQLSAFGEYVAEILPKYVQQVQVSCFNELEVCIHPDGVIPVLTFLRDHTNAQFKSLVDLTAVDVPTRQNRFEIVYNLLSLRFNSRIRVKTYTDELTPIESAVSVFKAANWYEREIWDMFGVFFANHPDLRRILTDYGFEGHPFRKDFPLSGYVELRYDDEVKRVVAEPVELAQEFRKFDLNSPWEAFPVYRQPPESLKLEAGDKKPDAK
truncated Ndufs3 (tNdufs3), Myc/Flag‐tagged: residues 37-132 of O75489

Assays:
[1] = molecular target: Myc/Flag‐tagged Ndufs3 (full‐length) (UniProt O75489); test: co-IP; 293T cells co-transfected with Flag-Pdia4 (or mutants) and Myc/Flag-tagged Ndufs3 or p22^phox (or mutants); lysates precipitated with anti-Myc (in Fig 6C also anti-Pdia4) antibody plus protein G beads; anti-Flag immunoblot
[2] = molecular target: T1, Myc/Flag‐tagged p22^phox (full‐length) (UniProt P13498); test: as above
T1 sequence: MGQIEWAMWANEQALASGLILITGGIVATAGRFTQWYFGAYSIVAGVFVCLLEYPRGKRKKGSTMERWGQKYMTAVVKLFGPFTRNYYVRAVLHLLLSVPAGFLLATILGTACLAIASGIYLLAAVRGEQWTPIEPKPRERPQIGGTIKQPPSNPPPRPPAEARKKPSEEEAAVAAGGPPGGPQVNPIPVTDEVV

[3] = molecular target: truncated Ndufs3 (tNdufs3), Myc/Flag‐tagged (UniProt O75489); test: as above
[4] = molecular target: T2, truncated p22^phox (tp22^phox), Myc/Flag‐tagged (UniProt P13498); test: as above
T2 sequence: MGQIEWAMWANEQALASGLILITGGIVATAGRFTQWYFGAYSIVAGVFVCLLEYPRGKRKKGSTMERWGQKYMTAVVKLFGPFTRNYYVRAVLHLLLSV

Gst‐Pdia4 (recombinant) = molecular target: T3, Gst‐Pdia4 (recombinant) (UniProt P13667); test: pull-down; recombinant Gst-Pdia4 incubated with His-tagged Nox1, Nox2, Nox3 or Nox4 for 1 h, then Gst beads; immunoblot; both purified
T3 sequence: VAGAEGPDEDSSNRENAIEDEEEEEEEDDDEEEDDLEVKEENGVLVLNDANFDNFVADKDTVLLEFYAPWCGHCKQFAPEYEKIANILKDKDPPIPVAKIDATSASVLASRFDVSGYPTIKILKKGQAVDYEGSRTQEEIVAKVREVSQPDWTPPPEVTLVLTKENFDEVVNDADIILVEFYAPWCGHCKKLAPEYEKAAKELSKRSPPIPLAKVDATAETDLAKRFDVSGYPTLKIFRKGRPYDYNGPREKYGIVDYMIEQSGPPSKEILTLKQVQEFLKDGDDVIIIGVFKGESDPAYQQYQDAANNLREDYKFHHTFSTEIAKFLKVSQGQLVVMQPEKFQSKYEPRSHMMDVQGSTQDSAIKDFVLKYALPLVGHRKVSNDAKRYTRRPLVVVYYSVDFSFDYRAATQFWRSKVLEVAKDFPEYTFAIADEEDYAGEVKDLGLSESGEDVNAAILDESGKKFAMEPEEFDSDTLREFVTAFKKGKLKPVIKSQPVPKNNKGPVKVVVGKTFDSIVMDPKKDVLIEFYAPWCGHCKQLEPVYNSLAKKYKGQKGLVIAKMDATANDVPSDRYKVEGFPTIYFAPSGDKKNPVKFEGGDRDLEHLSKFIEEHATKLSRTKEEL

Flag‐tagged Pdia4 = molecular target: T4, Flag‐tagged Pdia4 (UniProt P13667); test: co-IP; 293T cells co-transfected with Flag-Pdia4 and Myc/Flag-tagged p22^phox or Ndufs3, treated with GHTT (28 μM, 30 min by the legend; 10 μg/ml, 2 h by the methods); anti-Pdia4 antibody plus protein G beads; anti-Flag immunoblot
T4 sequence: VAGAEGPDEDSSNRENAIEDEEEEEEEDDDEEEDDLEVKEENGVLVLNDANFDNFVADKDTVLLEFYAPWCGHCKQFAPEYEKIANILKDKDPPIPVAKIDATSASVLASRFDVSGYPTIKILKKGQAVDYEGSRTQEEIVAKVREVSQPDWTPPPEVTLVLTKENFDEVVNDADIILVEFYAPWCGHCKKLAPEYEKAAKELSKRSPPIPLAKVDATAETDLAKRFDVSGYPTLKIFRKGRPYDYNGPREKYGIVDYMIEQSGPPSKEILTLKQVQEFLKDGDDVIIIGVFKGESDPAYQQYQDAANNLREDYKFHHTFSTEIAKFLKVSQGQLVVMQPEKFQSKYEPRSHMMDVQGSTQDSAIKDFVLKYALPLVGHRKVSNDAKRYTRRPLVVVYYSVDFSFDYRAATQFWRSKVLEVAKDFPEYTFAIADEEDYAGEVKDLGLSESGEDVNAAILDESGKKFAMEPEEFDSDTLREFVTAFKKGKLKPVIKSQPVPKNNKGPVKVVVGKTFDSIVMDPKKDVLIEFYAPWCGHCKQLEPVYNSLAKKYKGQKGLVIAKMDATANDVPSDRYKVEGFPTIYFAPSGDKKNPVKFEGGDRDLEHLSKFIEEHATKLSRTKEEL

[5] = molecular target: T5, 6×His‐Pdia4 (recombinant) (UniProt P13667); test: condition: 32 ng Gst-TecSH3, equimolar to 50 ng His-Pdia4; pull-down; His-tagged Pdia4 (50 ng) incubated in vitro with an equimolar amount of Gst-TecSH3 (32 ng), Gst-Ndufs3 (41 ng) or Gst-p22^phox (33 ng); pull-down with nickel beads; anti-Gst and anti-His immunoblot; both purified
T5 sequence: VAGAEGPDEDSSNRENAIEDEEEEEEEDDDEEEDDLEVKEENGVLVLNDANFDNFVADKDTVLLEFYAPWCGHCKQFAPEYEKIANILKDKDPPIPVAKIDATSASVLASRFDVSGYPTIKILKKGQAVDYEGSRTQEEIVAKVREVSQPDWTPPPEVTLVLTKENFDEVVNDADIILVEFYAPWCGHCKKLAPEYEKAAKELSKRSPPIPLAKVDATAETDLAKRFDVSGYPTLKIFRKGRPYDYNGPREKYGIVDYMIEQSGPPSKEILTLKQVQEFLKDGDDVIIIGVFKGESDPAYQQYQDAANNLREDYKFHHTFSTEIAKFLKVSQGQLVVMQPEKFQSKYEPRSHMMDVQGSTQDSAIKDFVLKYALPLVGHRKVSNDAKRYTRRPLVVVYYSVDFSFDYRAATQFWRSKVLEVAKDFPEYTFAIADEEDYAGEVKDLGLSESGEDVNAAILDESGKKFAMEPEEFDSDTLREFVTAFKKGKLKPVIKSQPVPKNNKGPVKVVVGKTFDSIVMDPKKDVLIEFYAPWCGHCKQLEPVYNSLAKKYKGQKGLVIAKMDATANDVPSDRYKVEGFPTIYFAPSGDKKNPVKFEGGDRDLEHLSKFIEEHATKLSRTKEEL

B1: Flag‐tagged Pdia4 (protein, UniProt P13667 21-645)
chain: VAGAEGPDEDSSNRENAIEDEEEEEEEDDDEEEDDLEVKEENGVLVLNDANFDNFVADKDTVLLEFYAPWCGHCKQFAPEYEKIANILKDKDPPIPVAKIDATSASVLASRFDVSGYPTIKILKKGQAVDYEGSRTQEEIVAKVREVSQPDWTPPPEVTLVLTKENFDEVVNDADIILVEFYAPWCGHCKKLAPEYEKAAKELSKRSPPIPLAKVDATAETDLAKRFDVSGYPTLKIFRKGRPYDYNGPREKYGIVDYMIEQSGPPSKEILTLKQVQEFLKDGDDVIIIGVFKGESDPAYQQYQDAANNLREDYKFHHTFSTEIAKFLKVSQGQLVVMQPEKFQSKYEPRSHMMDVQGSTQDSAIKDFVLKYALPLVGHRKVSNDAKRYTRRPLVVVYYSVDFSFDYRAATQFWRSKVLEVAKDFPEYTFAIADEEDYAGEVKDLGLSESGEDVNAAILDESGKKFAMEPEEFDSDTLREFVTAFKKGKLKPVIKSQPVPKNNKGPVKVVVGKTFDSIVMDPKKDVLIEFYAPWCGHCKQLEPVYNSLAKKYKGQKGLVIAKMDATANDVPSDRYKVEGFPTIYFAPSGDKKNPVKFEGGDRDLEHLSKFIEEHATKLSRTKEEL
[1]
  binding: binds
[2]
  binding: binds
[3]
  binding: binds
[4]
  binding: binds

B2: His‐tagged Nox2 (recombinant) (protein, UniProt P04839 1-570)
chain: MGNWAVNEGLSIFVILVWLGLNVFLFVWYYRVYDIPPKFFYTRKLLGSALALARAPAACLNFNCMLILLPVCRNLLSFLRGSSACCSTRVRRQLDRNLTFHKMVAWMIALHSAIHTIAHLFNVEWCVNARVNNSDPYSVALSELGDRQNESYLNFARKRIKNPEGGLYLAVTLLAGITGVVITLCLILIITSSTKTIRRSYFEVFWYTHHLFVIFFIGLAIHGAERIVRGQTAESLAVHNITVCEQKISEWGKIKECPIPQFAGNPPMTWKWIVGPMFLYLCERLVRFWRSQQKVVITKVVTHPFKTIELQMKKKGFKMEVGQYIFVKCPKVSKLEWHPFTLTSAPEEDFFSIHIRIVGDWTEGLFNACGCDKQEFQDAWKLPKIAVDGPFGTASEDVFSYEVVMLVGAGIGVTPFASILKSVWYKYCNNATNLKLKKIYFYWLCRDTHAFEWFADLLQLLESQMQERNNAGFLSYNIYLTGWDESQANHFAVHHDEEKDVITGLKQKTLYGRPNWDNEFKTIASQHPNTRIGVFLCGPEALAETLSKQSISNSESGPRGVHFIFNKENF
Gst‐Pdia4 (recombinant)
  binding: no binding

B3: His‐tagged Nox3 (recombinant) (protein, UniProt Q9HBY0 1-568)
chain: MMGCWILNEGLSTILVLSWLGINFYLFIDTFYWYEEEESFHYTRVILGSTLAWARASALCLNFNCMLILIPVSRNLISFIRGTSICCRGPWRRQLDKNLRFHKLVAYGIAVNATIHIVAHFFNLERYHWSQSEEAQGLLAALSKLGNTPNESYLNPVRTFPTNTTTELLRTIAGVTGLVISLALVLIMTSSTEFIRQASYELFWYTHHVFIVFFLSLAIHGTGRIVRGQTQDSLSLHNITFCRDRYAEWQTVAQCPVPQFSGKEPSAWKWILGPVVLYACERIIRFWRFQQEVVITKVVSHPSGVLELHMKKRGFKMAPGQYILVQCPAISSLEWHPFTLTSAPQEDFFSVHIRAAGDWTAALLEAFGAEGQALQEPWSLPRLAVDGPFGTALTDVFHYPVCVCVAAGIGVTPFAALLKSIWYKCSEAQTPLKLSKVYFYWICRDARAFEWFADLLLSLETRMSEQGKTHFLSYHIFLTGWDENQALHIALHWDENTDVITGLKQKTFYGRPNWNNEFKQIAYNHPSSSIGVFFCGPKALSRTLQKMCHLYSSADPRGVHFYYNKESF
Gst‐Pdia4 (recombinant)
  binding: no binding

B4: His‐tagged Nox4 (recombinant) (protein, UniProt Q9NPH5 1-578)
chain: MAVSWRSWLANEGVKHLCLFIWLSMNVLLFWKTFLLYNQGPEYHYLHQMLGLGLCLSRASASVLNLNCSLILLPMCRTLLAYLRGSQKVPSRRTRRLLDKSRTFHITCGVTICIFSGVHVAAHLVNALNFSVNYSEDFVELNAARYRDEDPRKLLFTTVPGLTGVCMVVVLFLMITASTYAIRVSNYDIFWYTHNLFFVFYMLLTLHVSGGLLKYQTNLDTHPPGCISLNRTSSQNISLPEYFSEHFHEPFPEGFSKPAEFTQHKFVKICMEEPRFQANFPQTWLWISGPLCLYCAERLYRYIRSNKPVTIISVMSHPSDVMEIRMVKENFKARPGQYITLHCPSVSALENHPFTLTMCPTETKATFGVHLKIVGDWTERFRDLLLPPSSQDSEILPFIQSRNYPKLYIDGPFGSPFEESLNYEVSLCVAGGIGVTPFASILNTLLDDWKPYKLRRLYFIWVCRDIQSFRWFADLLCMLHNKFWQENRPDYVNIQLYLSQTDGIQKIIGEKYHALNSRLFIGRPRWKLLFDEIAKYNRGKTVGVFCCGPNSLSKTLHKLSNQNNSYGTRFEYNKESFS
Gst‐Pdia4 (recombinant)
  binding: no binding

B5: Myc/Flag‐tagged p22^phox (full‐length) (protein, UniProt P13498 1-195)
chain: MGQIEWAMWANEQALASGLILITGGIVATAGRFTQWYFGAYSIVAGVFVCLLEYPRGKRKKGSTMERWGQKYMTAVVKLFGPFTRNYYVRAVLHLLLSVPAGFLLATILGTACLAIASGIYLLAAVRGEQWTPIEPKPRERPQIGGTIKQPPSNPPPRPPAEARKKPSEEEAAVAAGGPPGGPQVNPIPVTDEVV
Flag‐tagged Pdia4
  binding: no binding (condition: cells treated with GHTT (28 μM))

B6: Flag‐tagged Pdia4^322–515 (non‐catalytic domains b and b') (domain or fragment, UniProt P13667 322-515)
chain: QYQDAANNLREDYKFHHTFSTEIAKFLKVSQGQLVVMQPEKFQSKYEPRSHMMDVQGSTQDSAIKDFVLKYALPLVGHRKVSNDAKRYTRRPLVVVYYSVDFSFDYRAATQFWRSKVLEVAKDFPEYTFAIADEEDYAGEVKDLGLSESGEDVNAAILDESGKKFAMEPEEFDSDTLREFVTAFKKGKLKPVIK
[1]
  binding: no binding
[2]
  binding: no binding

B7: Gst‐TecSH3 (domain or fragment, UniProt P24604 178-238)
chain: NTEEIVVAMYDFQATEAHDLRLERGQEYIILEKNDLHWWRARDKYGSEGYIPSNYVTGKKS
[5]
  binding: no binding
